Laboratory results reported in patent US20060189519A1, “Anti-angiogenic fragments fo pigment epithelium-derived factor (pedf)” (priority 2002, published 2006).
At least one structure is not confirmed: it was looked up by name or label, or the drawing left a doubt.

Test system: HUVECs
Assay: Endothelial cell apoptosis assay (TUNEL, ApopTag)
Assay type: cell-based, human
Details: 50-100 nM SP600125
Procedure: FIG. 5. Endothelial cell apoptosis induced by TGA and ERT-L PEDF peptides. 90% confluent HUVECs were treated with increasing concentrations of TGA (FIG. 5A) or ERT-L (FIG. 5B). Apoptotic cells were detected with ApopTag assay kit (Intergen) and percent of TUNEL positive cells calculated.
Apoptosis by PEDF and by the 34-mer were mediated by the same signaling events including activation of JNK-1. Apoptosis by both PEDF and by its 34-mer fragment were abolished in the presence of JNK-1 specific inhibitor SP600125 (BioMol). […] The 44-mer had no activity.
Cells were plated on gelatinized glass cover slips in 24-well tissue culture plates at 5×10^4 cells/well, treated with indicated compounds in low serum (0.2%), fixed in 1% buffered paraformaldehyde, stained using the ApopTag in situ cell death detection kit according to the manufacturer's instructions (Serologicals corporation) and counterstained with propidium iodide. The percentage of terminal deoxynucleotidyl transferase-mediated dUTP nick end labeling (TUNEL)-positive cells was calculated as the number of TUNEL-positive cells (counted in 2-6 randomly selected fields from two different chambers) divided by the total number of cells. 600-1200 cells were scored for each treatment.
Human umbilical vein endothelial cells (HUVEC, NCI) were grown to 90% confluence and treated with peptides overnight in low (0.2%) serum. […]

For `Oc1c2ccccc2c2c3c(cccc13)N=N2` [SP600125, reference compound], the “effect of JNK-1 inhibitor on apoptosis by the 34-mer” value was “reduced apoptosis by the 34-mer to the background levels”.
